These are yes or no findings as the source states them, for the method shown. Binding seen in cells or lysates may run through a third protein. Some results given as binding are weak or reduced against the parent protein; the word gives no strength. Sequences can lack the tags named with a protein.
T1: Cascade subunit Cse2 (CasB) with Streptactin-Tag II (E. coli) (UniProt P76632)
T1 sequence: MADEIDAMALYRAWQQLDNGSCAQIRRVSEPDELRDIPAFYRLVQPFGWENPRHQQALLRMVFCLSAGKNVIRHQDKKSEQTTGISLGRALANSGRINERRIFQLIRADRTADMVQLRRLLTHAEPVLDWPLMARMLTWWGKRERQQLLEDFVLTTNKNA


Experiments:
[1] = target: T1, Cascade subunit Cse2 (CasB) with Streptactin-Tag II (E. coli); test: pull-down + SEC; co-purification of Cascade lacking crRNA (Cascade-crZERO); stable during purification, gel filtration peak at the same position as Cascade-crRNA1
[2] = target: T1, Cascade subunit Cse2 (CasB) with Streptactin-Tag II (E. coli); test: pull-down + SEC; co-purification of Cascade with crRNA1: subunits and crRNA1 co-expressed in BL21 AI; soluble lysate over StrepTrap column by the tag on Cse2, eluted with 2.5 mM desthiobiotin (100 mM Tris pH 8.0, 150 mM NaCl, 1 mM EDTA), then HiPrep Sephacryl S-300 HR

Row | Binder | binding [1] | binding [2]
1 | Cascade subunit Cas6e (protein, UniProt Q46897 1-199) MYLSKVIIARAWSRDLYQLHQGLWHLFPNRPDAARDFLFHVEKRNTPEGCHVLLQSAQMPVSTAVATVIKTKQVEFQLQVGVPLYFRLRANPIKTILDNQKRLDSKGNIKRCRVPLIKEAEQIAWLQRKLGNAARVEDVHPISERPQYFSGDGKSGKIQTVCFEGVLTINDAPALIDLVQQGIGPAKSMGCGLLSLAPL | binds | binds
2 | Cascade subunit Cas7 (protein, UniProt Q46899 1-363) MSNFINIHVLISHSPSCLNRDDMNMQKDAIFGGKRRVRISSQSLKRAMRKSGYYAQNIGESSLRTIHLAQLRDVLRQKLGERFDQKIIDKTLALLSGKSVDEAEKISADAVTPWVVGEIAWFCEQVAKAEADNLDDKKLLKVLKEDIAAIRVNLQQGVDIALSGRMATSGMMTELGKVDGAMSIAHAITTHQVDSDIDWFTAVDDLQEQGSAHLGTQEFSSGVFYRYANINLAQLQENLGGASREQALEIATHVVHMLATEVPGAKQRTYAAFNPADMVMVNFSDMPLSMANAFEKAVKAKDGFLQPSIQAFNQYWDRVANGYGLNGAAAQFSLSDVDPITAQVKQMPTLEQLKSWVRNNGEA | binds | binds

The remaining lines, values ahead:

Row | binding [1] | binding [2] | Binder
3 | binds | binds | Cascade subunit Cse1 (protein, UniProt Q46901 1-502) MNLLIDNWIPVRPRNGGKVQIINLQSLYCSRDQWRLSLPRDDMELAALALLVCIGQIIAPAKDDVEFRHRIMNPLTEDEFQQLIAPWIDMFYLNHAEHPFMQTKGVKANDVTPMEKLLAGVSGATNCAFVNQPGQGEALCGGCTAIALFNQANQAPGFGGGFKSGLRGGTPVTTFVRGIDLRSTVLLNVLTLPRLQKQFPNESHTENQPTWIKPIKSNESIPASSIGFVRGLFWQPAHIELCDPIGIGKCSCCGQESNLRYTGFLKEKFTFTVNGLWPHPHSPCLVTVKKGEVEEKFLAFTTSAPSWTQISRVVVDKIIQNENGNRVAAVVNQFRNIAPQSPLELIMGGYRNNQASILERRHDVLMFNQGWQQYGNVINEIVTVGLGYKTALRKALYTFAEGFKNKDFKGAGVSVHETAERHFYRQSELLIPDVLANVNFSQADEVIADLRDKLHQLCEMLFNQSVAPYAHHPKLISTLALARATLYKHLRELKPQGGPSNG
4 | binds | binds | Cascade subunit Cas5 (protein, UniProt Q46898 1-224) MRSYLILRLAGPMQAWGQPTFEGTRPTGRFPTRSGLLGLLGACLGIQRDDTSSLQALSESVQFAVRCDELILDDRRVSVTGLRDYHTVLGAREDYRGLKSHETIQTWREYLCDASFTVALWLTPHATMVISELEKAVLKPRYTPYLGRRSCPLTHPLFLGTCQASDPQKALLNYEPVGGDIYSEESVTGHHLKFTARDEPMITLPRQFASREWYVIKGGMDVSQ

Source: paper PMC6546356
